## Primary screen of a compound library

The chains behind the UniProt entries cited, without tags or fusion partners.
UniProt P9WPC5, whole entry: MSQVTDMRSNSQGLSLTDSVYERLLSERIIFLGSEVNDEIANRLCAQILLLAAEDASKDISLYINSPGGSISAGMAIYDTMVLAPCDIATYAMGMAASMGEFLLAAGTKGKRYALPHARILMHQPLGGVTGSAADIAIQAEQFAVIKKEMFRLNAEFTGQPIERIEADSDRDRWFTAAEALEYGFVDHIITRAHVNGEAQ
UniProt P9WPC3, whole entry partner: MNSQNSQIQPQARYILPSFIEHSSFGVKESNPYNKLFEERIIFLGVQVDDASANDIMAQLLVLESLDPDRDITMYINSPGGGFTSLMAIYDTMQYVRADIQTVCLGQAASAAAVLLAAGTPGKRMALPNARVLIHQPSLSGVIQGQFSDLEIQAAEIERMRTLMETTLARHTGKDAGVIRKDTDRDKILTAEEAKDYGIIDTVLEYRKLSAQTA
UniProt P9WNZ1, whole entry: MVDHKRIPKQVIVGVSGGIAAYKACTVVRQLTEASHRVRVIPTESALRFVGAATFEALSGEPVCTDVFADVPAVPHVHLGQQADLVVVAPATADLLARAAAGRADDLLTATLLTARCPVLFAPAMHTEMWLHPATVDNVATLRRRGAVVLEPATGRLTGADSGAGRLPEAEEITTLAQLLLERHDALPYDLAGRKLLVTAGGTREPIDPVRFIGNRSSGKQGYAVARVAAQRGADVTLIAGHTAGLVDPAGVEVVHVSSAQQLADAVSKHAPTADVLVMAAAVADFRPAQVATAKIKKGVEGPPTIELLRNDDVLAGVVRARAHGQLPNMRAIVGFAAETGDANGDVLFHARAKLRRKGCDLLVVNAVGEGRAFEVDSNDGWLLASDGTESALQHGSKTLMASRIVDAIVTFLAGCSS

From ChEMBL document CHEMBL3988442, “University of Dundee, Small-Polar-MMV Screening Library” (2021).

ClpP1P2: 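ClpP1P2, Mycobacterium tuberculosis (UniProt P9WPC5 and UniProt P9WPC3). Protease assay of ClpP1P2, read by the AMC dye that it sets free. Tested at 50 µM. Higher reads as stronger inhibition, judged from the few compounds that gave an IC50. Most other retested compounds had strongly negative values. About 69,000 compounds were tested under these conditions; 0.015% (about 10) showed 50% or more at least once.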
CoaBC: 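Coenzyme A biosynthesis protein CoaBC, Mycobacterium tuberculosis (UniProt P9WNZ1). Enzyme assay of CoaBC with a phosphate dye (Biomol Green) read at 650 nm. Tested at 30 µM. Direction is inferred from only a few compounds that gave an IC50; most scored high, so higher reads as stronger inhibition. Most strong results did not repeat in a second test. Size under these conditions: about 67,000 compounds, about 40 of them at 50% or above in at least one test.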
Toxoplasma: 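Assay of Toxoplasma gondii numbers, read through their beta-galactosidase reporter with a colour substrate. Concentration: 10 µM. Higher reads as fewer parasites (inferred from which compounds were picked for retests). Size under these conditions: about 67,000 compounds, about 260 of them at 50% or above in at least one test.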

Values are the deposited “Percent Effect”, in %. The record does not define 0% and 100%; most values in the screen are far below 50% and negative numbers occur (in some assays of this library far below -100). The compounds are a random part of those screened. A dash means the value is not listed here; it may have been measured.

Compound	ClpP1P2	CoaBC	Toxoplasma
O=C(O)C(F)(F)F.[H][C@]12CN(Cc3cccnc3)C(=O)[C@@]1([H])CN(S(=O)(=O)CC)C2	-	-	-10.13%
COCCO[C@H]1CCN(C(=O)c2ccc[nH]2)[C@H]1Cc1ccncc1	6.391%	18.65%	-1.941%
CCc1ccc(C(=O)N2CCN(Cc3ccc(F)cc3)CC2)s1	-10.58%	-1.882%	0.2241%
CCNC(=O)C1CCCN(c2cccc(C(F)(F)F)n2)C1 (stereo not shown)	-5.854%	-0.8464%	0.7917%
CC(C)CN1C(=O)CC[C@H]2CN(Cc3ncc[nH]3)CC[C@H]21	-3.156%	-4.545%	-
CCN(CC1CCOC1)C(=O)c1ccn(-c2ccc(OC)cc2)n1 (stereo not shown)	23.46%	-3.215%	7.911%
Cc1ccc(C(=O)N2CC[C@H]3[C@@H]2CCC(=O)N3c2cccnc2)o1	-3.031%	4.326%	-
COC[C@@H]1CC[C@H]2[C@H](CCN2C(=O)c2ccncc2F)O1	-5.638%	-0.8811%	-
c1cnn(C2CN(CCCOc3ccc4c(c3)OCO4)C2)c1	-2.241%	-10.33%	-11.09%
CS(=O)(=O)N1CCOCC2(CCN(c3cnccn3)CC2)C1	8.247%	0.9852%	14.23%
CN(C)CCOCC1CN(Cc2ccsc2)Cc2ccnn2C1.O=C(O)C(F)(F)F.O=C(O)C(F)(F)F.O=C(O)C(F)(F)F (stereo not shown)	-	-	-10.9%
[H][C@]12CCN(Cc3ccc4c(c3)OCO4)[C@@]1([H])CCN2CCN(C)C	-	-	-6.842%
COc1ccc(CNCCc2cc(F)cc3c2OCOC3)cc1O	-11.02%	-9.705%	-5.757%
Nc1cc2c(nn1)CCN(C(=O)CCC1CCCCC1)C2	-10.97%	1.837%	0.1893%
CN(Cc1ccon1)CC1CCOc2ccccc2C1 (stereo not shown)	-6.959%	1.739%	10.82%
Cc1nccc(-c2cccc(NCC(=O)N3CCOC(C)C3)c2)n1 (stereo not shown)	-1.955%	2.216%	-4.227%
O=C(O)C(F)(F)F.O=C(O)C(F)(F)F.[H][C@]12CCC(=O)N(CC3CCOCC3)[C@@]1([H])CCN2Cc1ccccn1	-	-	-4.013%
CCc1nnc2n1CCN(Cc1nnc(-c3occc3C)o1)C2	-29.1%	2.35%	-4.996%
Cc1ccoc1C(=O)N1Cc2c(Cn3ccnc3)nn(C)c2C1.O=C(O)C(F)(F)F	-	-	2.833%
O=C1NCCCCC1NC(=O)C1(Oc2ccc(Cl)cc2)CCNCC1 (stereo not shown)	-8.148%	-44.39%	-0.3541%
[H][C@]12CCN(C(=O)Cc3cccc(OC)c3)[C@@]1([H])CCC(=O)N2C	-	-	-9.701%
CS(=O)(=O)c1cccc(S(=O)(=O)NC(=O)c2cscn2)c1	-8.878%	0%	1.14%
COCCn1ccc2c(C(=O)NC3CN4CCC3CC4)cccc21 (stereo not shown)	-10.3%	2.778%	-10.36%
Cc1cccc(CNC(=O)Nc2ccc3c(c2)CCCC(=O)N3)c1	4.695%	-4.497%	4.872%
O=C1N(c2ccsc2)CCC12CCCN(Cc1cccnc1)C2 (stereo not shown)	-3.809%	12.42%	-
CC(C)CNC(=O)CN1CCCC(c2ccc(C(=O)O)cc2)C1 (stereo not shown)	-12.04%	3.299%	10.48%
O=C(O)C(F)(F)F.[H][C@@]12CCN(C3CCOCC3)C[C@]1([H])O[C@H](C(=O)N1CCCC1)C2	-	-	6.833%
CNC(=O)c1noc(Cn2ncc3ccccc3c2=O)n1	6.272%	-	1.51%
Cl.O=C(Nc1nc2c(s1)CNCC2)C1CC1	-	-	3.51%
O=C(O)C(F)(F)F.c1cncc(C2CC3(CCN(c4cnccn4)CC3)c3ccccc32)c1 (stereo not shown)	-	-	6.968%
O=C1CC2(CCSC2)C(=O)N1Cc1ncc(-c2ccccc2)o1 (stereo not shown)	-8.728%	14.35%	8.974%
COCC1Cn2nnc(-c3cnn(C)c3)c2CN1Cc1ccsc1.O=C(O)C(F)(F)F (stereo not shown)	-	-	6.271%
Cc1csc(CNC(=O)N2CCN(Cc3ccco3)CC2)n1	-5.684%	0.1304%	-1.192%
Cc1noc(C)c1CN1CCn2cc(CN3CCCC3)nc2C1.O=C(O)C(F)(F)F.O=C(O)C(F)(F)F	-	-	-16.35%
COc1ccc(CCN2C(=O)O[C@@H]3CN(C4CCOCC4)C[C@@H]32)cc1	-9.174%	-0.8631%	-
Cc1ncsc1CN1CC[C@H]2OCC[C@@]2(C(=O)N2CCOCC2)C1	-0.1424%	8.211%	-
c1cnc(N2CCO[C@H]3[C@H](OCCN4CCCC4)CC[C@@H]32)nc1	-9.206%	-37.84%	-
O=C(CCn1ccnc1)N1CCC(c2nnc(-c3ccccn3)o2)CC1	-0.1662%	-8.717%	26.88%
CCOc1ccc(NCc2cnc(N3CCN(C)CC3)nc2)cn1	-0.4628%	9.163%	-9.16%
Cc1ccn2ncc(C(=O)N3CCCC(n4nc(C)nc4C)C3)c2n1 (stereo not shown)	0.8124%	-9.719%	4.864%
Cc1ccc(C2CCCN2CC(=O)N(CCC#N)c2ccccc2)cc1 (stereo not shown)	-3.232%	8.73%	-0.4823%
Cc1ccnc(NCC2(N(C)C)CCOCC2)n1	-6.839%	-14.55%	-0.8739%
Cc1ccc(O)c(CNCC2CCCN2c2cccnn2)n1 (stereo not shown)	-36.94%	0.1267%	-4.093%
CC(C)NC(=O)CCNC(=O)Nc1cnn(-c2ccccc2F)c1	-16.83%	5.063%	4.253%
Cc1cccc(NC(=O)N2CCOCC(CN(C)C)C2)c1C (stereo not shown)	-6.834%	-0.6143%	-11.52%
c1ccc(C[C@H]2CN(Cc3nccs3)CC[C@@H]2OCC2CC2)cc1	-10.3%	0.5076%	-
COCCN1CCC(NCc2ccc(C#N)cc2)C1 (stereo not shown)	-0.8779%	-0.4819%	1.8%
Cc1ccc(O[C@@H]2C[C@H]3CN(C(=O)Cc4ccccn4)CCN3C2)cc1	6.193%	-1%	-
CCN1Cc2cc(OC)ccc2N(CC(C)(C)O)CCC1=O	5.005%	0.3681%	-20.78%
Cc1cccc(CN2CCC3(CCN(Cc4ccccn4)C3)C2=O)c1 (stereo not shown)	2.843%	-0.9674%	-
O=C(O)c1cc(S(=O)(=O)Nc2cccc3c2OCCO3)c(Cl)cc1F	-0.000287%	4.994%	7.287%
Cc1ccccc1N1CCCN(C(=O)CCCn2ccnc2C)CC1	-6.794%	4.455%	-26.59%
Cc1noc(C)c1-c1n[nH]c2c1CN(S(=O)(=O)c1ccsc1)CC2	-0.9648%	-3.563%	0.8347%

The last 5 entries again:

Result for CCN1Cc2cc(OC)ccc2N(CC(C)(C)O)CCC1=O was ClpP1P2: 5.005%; CoaBC: 0.3681%; Toxoplasma: -20.78%.
Result for Cc1cccc(CN2CCC3(CCN(Cc4ccccn4)C3)C2=O)c1 (stereo not shown) was ClpP1P2: 2.843%; CoaBC: -0.9674%.
Result for O=C(O)c1cc(S(=O)(=O)Nc2cccc3c2OCCO3)c(Cl)cc1F was ClpP1P2: -0.000287%; CoaBC: 4.994%; Toxoplasma: 7.287%.
Result for Cc1ccccc1N1CCCN(C(=O)CCCn2ccnc2C)CC1 was ClpP1P2: -6.794%; CoaBC: 4.455%; Toxoplasma: -26.59%.
Result for Cc1noc(C)c1-c1n[nH]c2c1CN(S(=O)(=O)c1ccsc1)CC2 was ClpP1P2: -0.9648%; CoaBC: -3.563%; Toxoplasma: 0.8347%.